Source: patent publication US8916517B2, “Analogs of pituitary adenylate cyclase-activating polypeptide (PACAP) and methods for their use” (The Administrators of the Tulane Educational Fund, priority 2009, dated 2014)
At least one structure is not confirmed: it was looked up by name or label, or the drawing left a doubt.

Legend:
[1] = tested on: human myeloma cell line (MM.1S); assay: Proliferation of myeloma cell line MM.1S (bromodeoxyuridine incorporation); assay type: cell-based; details: FIG. 8
Protocol: (§1) FIG. 8 is a graph showing the effects PACAP38, [Pip^3,Ala^14,17,Aib^1 6,28,Lys^34,D-Lys^38 (SEQ ID NO: 6) and dexamethasone on the proliferation of light-chain immunoglobulin-secreting human myeloma cell line (MM.1S) that was derived from a patient who was being treated for multiple myeloma with a dexamethasome-containing regimen. The light-chain immunoglobulin-secreting multiple myeloma cells were cultured in RPMI 1640 medium supplemented with 10% non-inactivated fetal bovine serum and 0.05mM 2-mercaptoethanol. The effects of dexamethasone, PACAP38 and the novel PACAP38analog on cell proliferation were assessed by determining the incorporation of bromodeoxyuridine into DNA during cell division. Each value represents the mean plus/minus the standard error of four-six determinations. The cell lines in FIGS. 8 and 9 were obtained from the same patient at different stages of the treatment (Greenstein et al., Exp HematoI31 :271-282, 2003).

[2] = tested on: human myeloma cell line (MM.1 R); assay: Proliferation of dexamethasone-resistant myeloma cell line MM.1R (bromodeoxyuridine incorporation); assay type: cell-based; details: FIG. 9
Protocol: as §1, with “FIG. 9” for “FIG. 8”, “PACAP38, [Pip^3,Ala^14,17,Aib^16,28,Lys^34,D-Lys^38] PACAP38(SEQ” for “PACAP38, [Pip^3,Ala^14,17,Aib^1 6,28,Lys^34,D-Lys^38 (SEQ”, “line (MM.1 R)” for “line (MM.1S)”, “novel PACAP38 analog” for “novel PACAP38analog”, “four-six determination.” for “four-six determinations.”, “Exp Hematol 31” for “Exp HematoI31”

C[C@@H]1C[C@H]2[C@@H]3CCC4=CC(=O)C=C[C@]4(C)[C@@]3(F)[C@@H](O)C[C@]2(C)[C@@]1(O)C(=O)CO [dexamethasone]
sensitivity of cell proliferation [1]: as sensitive to dexamethasone as it is to PACAP38
sensitivity of cell proliferation [2]: almost completely insensitive
